# Reference: patent publication EP3838286B1, “ANTIMICROBIAL PEPTIDE FROM POLISTES GALLICUS VENOM AND ITS ANALOGS” (Latoxan, priority 2019, dated 2021)
# Legend:
# BEAS = experiment: Cytotoxicity assay (resazurin); assay type: cell-based, human; conditions: IC50 BEAS divided by MIC P. aeruginosa
# Experimental: (§1) Normal human cells used were BEAS-2B (ATCC CRL-9609), IMR-90 (ATCC CCL-186) and Human Umbilical Vein Endothelial Cells (HUVEC) (from Sigma-Aldrich) corresponding respectively to human normal lung epithelial, normal lung fibroblast cells and human normal endothelial cells. All cells except HUVEC cells were cultured in Dulbecco's modified essential medium (DMEM) supplemented with 10% fetal calf serum (FCS), 1% L-glutamine and 1% antibiotics (all from Invitrogen). HUVEC cells were cultured in specific endothelial media (from Sigma Aldrich). Cells were seeded onto […] maintained in a 5% CO2 incubator at 37 °C. Cells grown on 25 cm^2 flasks were detached using trypsin-EDTA solution (from Thermofisher), counted using Mallassez counting chamber and seeded into 96-well cell culture plates (Greiner bio-one) at approximately 10,000 cells per well. The cells were left to grow for 48-72 h at 37 °C in a 5% CO2 incubator until they reached confluence. Plates were then aspirated and increasing concentrations of peptides diluted in culture media were added to the cells for 48 h at 37 °C in a 5% CO2 incubator. At the end of the incubation, wells were emptied and cell viability was evaluated using Resazurin based in vitro toxicity assay kit (from Sigma-Aldrich) following manufacturer's instructions. Briefly, Resazurin stock solution was diluted 1:10 in sterile PBS containing calcium and magnesium (PBS, pH 7.4) and empty wells were filled with 100 µL of the diluted solution. After 4 h incubation at 37 °C, fluorescence intensity was measured using microplate reader (Synergy Mx, Biotek) with an excitation wavelength of 530 nm and an emission wavelength of 590 nm. The fluorescence values were normalized by the controls (buffer treated cells) and expressed as percent viability. The IC50 values of peptides on cell viability (i.e. the concentration of derivative causing a reduction of 50% of cell viability) were determined using GraphPad® Prism 7 software. t-Test and two way ANOVA analyses were used to address the significant differences between mean values with significance set at p < 0.05.
# HUVEC = experiment: Cytotoxicity assay (resazurin); assay type: cell-based, human; conditions: IC50 HUVEC divided by MIC P. aeruginosa
# Experimental: as §1
# IMR90 = experiment: Cytotoxicity assay (resazurin); assay type: cell-based, human; conditions: IC50 IMR90 divided by MIC P. aeruginosa
# Experimental: as §1
# human erythrocytes = experiment: Hemolytic activity assay; assay type: cell-based
# Experimental: The hemolytic activity of each peptide was determined by the leakage of hemoglobin from human erythrocytes (obtained from Divbioscience, NL) as previously described (Oyama et al., 2017 Biofilms Microbiomes, Dec 1;3:33).
# Briefly, human erythrocytes were washed 3 times with phosphate buffer saline (PBS) and concentrated using centrifugation at 800 g for 5 min. Human erythrocytes were then resuspended in PBS at a final concentration of 8 %. 100 µl of human erythrocytes were then added per well of sterile 96 well microplate already containing 15 µl of serially diluted antimicrobials (1:2 in distilled water). After 1 h at 37°C, the microplate was centrifuged at 800 g for 5 min. 100 µl were then carefully collected and transferred to a new 96 well microplate and OD was measured at 405 nm. Hemolysis caused by peptides was expressed as percentage of hemolysis; Triton-X100 at 0.1 % (v:v) was used as positive control and gave 100 % hemolysis. Hemolysis rate was determined as below: Hemolysis rate (%) = (A−A2)/(A1−A2) × 100% [formula] where A is the absorbance of indicator mixtures with different factors, A1 and A2 are the positive control, and the negative control, respectively.
Compound,Therapeutic index (IC50s compared to MIC P. aeruginosa) BEAS (BEAS),Therapeutic index (IC50s compared to MIC P. aeruginosa) HUVEC (HUVEC),Therapeutic index (IC50s compared to MIC P. aeruginosa) IMR90 (IMR90),Therapeutic Index (MHC50/MIC) B. subtilis (human erythrocytes; MHC50 on human erythrocytes divided by MIC for B. subtilis),Therapeutic Index (MHC50/MIC) S. aureus (human erythrocytes; MHC50 on human erythrocytes divided by MIC for S. aureus)
"CC[C@@H](C)[C@@H](N)C(=O)N[C@H](CC(C)C)C(=O)N[C@H](CCCCN)C(=O)N[C@H](C)C(=O)N[C@@H](C(=O)N[C@H](CCCCN)C(=O)N[C@H](CCCCN)C(=O)N[C@H](CC(C)C)C(=O)N[C@H](CC(C)C)C(=O)N[C@H](CCCCN)C(N)=O)[C@H](C)CC [(i1k10*) enantio, ilkaikkllk] (H-[dI][dL][dK][dA][dI][dK][dK][dL][dL][dK]-NH2)",232.3,218.5,116.7,,
"CC[C@@H](C)[C@@H](N)C(=O)N[C@H](CC(C)C)C(=O)N[C@H](CCCCN)C(=O)N[C@H](C)C(=O)N[C@@H](C(=O)N[C@H](CCCCN)C(=O)N[C@H](CCCCN)C(=O)N[C@H](CC(C)C)C(=O)N[C@H](CC(C)C)C(=O)N[C@H](CCCCN)C(=O)N[C@H](CC(N)=O)C(N)=O)[C@H](C)CC [LTX-D (gallicune-1), ilkaikkllkn] (H-[dI][dL][dK][dA][dI][dK][dK][dL][dL][dK][dN]-NH2)",562.2,579.3,435.4,,
CC[C@@H](C)[C@@H](N)C(=O)N[C@@H](CC(C)C)C(=O)N[C@@H](CCCCN)C(=O)N[C@@H](C)C(=O)N[C@H](C(=O)N[C@@H](CCCCN)C(=O)N[C@@H](CCCCN)C(=O)N[C@@H](CC(C)C)C(=O)N[C@@H](CC(C)C)C(=O)N[C@@H](CCCCN)C(=O)N[C@H](CC(N)=O)C(N)=O)[C@@H](C)CC [LTX-gallicune-1(i1D-n11D)] (H-[dI]LKAIKKLLK[dN]-NH2),260.5,290.3,241.4,,
RLLGLWLW-NH2 [LTX-gallicune-2 (R1W8)],,,,18,18

# Square brackets hold non-standard residues; d marks the D form. Ends that are not written are not given here. Peptide text beside a SMILES is read from it.
